PubChem BioAssay AID1259264 – Sanger Institute | 2017
This is one part, drawn at random, of 794 reagents tested. In the full data, 15 (1.9%) got an active call. 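Calls rest on knock-down alone at z-score below -3; synergy scores with the three drugs do not decide them.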 Entries without a mark were called inactive. No viability above 1 is reported: the scale is capped. Not all columns of the deposit are shown. The record does not give: the amount of reagent, the time to read-out.

Purpose: 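Kinases needed for CL40 growth and those that boost anti-cancer drug killing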 (primary screen)
Cell system: CL40 human colorectal cancer cells
Reagents: siRNA pool against human genes
Challenge: DMSO, or an anchor drug: BYL719 at 1 µM, cetuximab at 5 µg/ml, or trametinib at 10 nM
Measurement: 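Replicate-mean viability versus a non-targeting pool, robust z-score from control wells, and mean synergy with BYL719 1 µM, cetuximab 5 µg/ml or trametinib 10 nM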
Reading the numbers: robust z-score, siRNA alone and viability, siRNA alone: higher = more viable cells
Active means: 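Essential call: siRNA with no drug reaches a robust z under -3 (low cell count); drug synergy scores do not affect it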
Calls: active = essential (lowers viability alone); inactive = not essential

gene knocked down | robust z-score, siRNA alone | viability, siRNA alone (fraction of control)
LMBR1 (limb development membrane protein 1) | 0.465 | 0.995
PFKL (phosphofructokinase, liver type) | -0.0937 | 0.955
CSNK2B (casein kinase 2 beta) | 0.322 | 0.984
ACVR2B (activin A receptor type 2B) | 0.0174 | 0.963
AK7 (adenylate kinase 7) | -0.788 | 0.905
PIK3C2G | -1.79 | 0.833
MAGI2 | 0.539 | 1
CDK8 (cyclin dependent kinase 8) | 0.539 | 1
HIPK1 (homeodomain interacting protein kinase 1) | -0.37 | 0.935
LIMK1 (LIM domain kinase 1) | 0.539 | 1
CAMKV (CaM kinase like vesicle associated) | -0.5 | 0.926
ITPK1 (inositol-tetrakisphosphate 1-kinase) | -0.545 | 0.922
RPS6KA1 (ribosomal protein S6 kinase A1) | -1.11 | 0.882
FOXP1 (forkhead box P1) | 0.0332 | 0.964
PANK2 (pantothenate kinase 2) | 0.539 | 1
EPHB2 (EPH receptor B2) | 0.526 | 0.999
CDKL4 (cyclin dependent kinase like 4) | 0.539 | 1
MAPK15 (mitogen-activated protein kinase 15) | 0.275 | 0.981
AXL (AXL receptor tyrosine kinase) | -0.112 | 0.953
PIK3CB | -0.712 | 0.91
MSR1 (macrophage scavenger receptor 1) | -1.11 | 0.882
NRBP1 (nuclear receptor binding protein 1) | 0.321 | 0.984
NEK4 (NIMA related kinase 4) | -0.0683 | 0.956
IKBKB (inhibitor of nuclear factor kappa B kinase subunit beta) | 0.539 | 1
RPS6KB1 (ribosomal protein S6 kinase B1) | 0.539 | 1
CDK20 (cyclin dependent kinase 20) | -0.147 | 0.951
PIK3R1 (phosphoinositide-3-kinase regulatory subunit 1) | 0.373 | 0.988
CDK1 (cyclin dependent kinase 1) | -0.794 | 0.904
PNKP (polynucleotide kinase 3'-phosphatase) | 0.539 | 1
PI4K2A (phosphatidylinositol 4-kinase type 2 alpha) | 0.204 | 0.976
PFKM (phosphofructokinase, muscle) | 0.533 | 1
CRIM1 (cysteine rich transmembrane BMP regulator 1) | -0.305 | 0.94
STK35 (serine/threonine kinase 35) | 0.539 | 1
FLT4 (fms related receptor tyrosine kinase 4) | 0.539 | 1
POLR2B (RNA polymerase II subunit B) | -4.94 (active) | 0.607
CLSPN (claspin) | 0.539 | 1
TP53 (tumor protein p53) | 0.326 | 0.985
NF1 (neurofibromin 1) | 0.539 | 1
PSKH1 (protein serine kinase H1) | 0.539 | 1
PANK4 (pantothenate kinase 4 (inactive)) | -1.87 | 0.827
CAMK4 (calcium/calmodulin dependent protein kinase IV) | 0.539 | 1
MATK (megakaryocyte-associated tyrosine kinase) | -0.797 | 0.904
RPS6KC1 (ribosomal protein S6 kinase C1) | 0.278 | 0.981
CDK11A (cyclin dependent kinase 11A) | -2.91 | 0.753
MGA (MAX dimerization protein MGA) | -1.42 | 0.86
DGKI (diacylglycerol kinase iota) | 0.539 | 1
PDXK (pyridoxal kinase) | 0.539 | 1
BCOR (BCL6 corepressor) | 0.398 | 0.99
CDC42BPA (CDC42 binding protein kinase alpha) | -0.491 | 0.926
N4BP2 (NEDD4 binding protein 2) | 0.539 | 1
ALPK2 (alpha kinase 2) | 0.354 | 0.987
SGK1 (serum/glucocorticoid regulated kinase 1) | 0.539 | 1
CDK5R2 (cyclin dependent kinase 5 regulatory subunit 2) | 0.243 | 0.979
ITPKC (inositol-trisphosphate 3-kinase C) | 0.539 | 1
IDH2 (isocitrate dehydrogenase (NADP(+)) 2) | 0.18 | 0.974
PRKCE (protein kinase C epsilon) | 0.539 | 1
MAP3K2 (mitogen-activated protein kinase kinase kinase 2) | 0.538 | 1
CTNNB1 (catenin beta 1) | 0.539 | 1
SPHK1 (sphingosine kinase 1) | 0.539 | 1
KHK (ketohexokinase) | -0.669 | 0.913
CDKN1C (cyclin dependent kinase inhibitor 1C) | 0.168 | 0.973
MUSK (muscle associated receptor tyrosine kinase) | -0.165 | 0.95
PSTK (phosphoseryl-tRNA kinase) | -1.84 | 0.829
